The campaign covered roughly 390,000 compounds. About 610 (0.16%) were called active. The shares of active, inactive and inconclusive entries below differ from those in the screen. Calls follow the shape of the dose curve; as a rule, active = well fitted inhibition curve with a large enough effect; inconclusive = small, poorly fitted or top-dose-only effect, or effect the other way, or another doubt; inactive = no such curve, though single readings can be large or run the other way. A potency beside an inconclusive call is a rough fit, not a confirmed value.
assay: Nrf2 qHTS screen for inhibitors: counterscreen for cytotoxicity; details: A549 ARE-Fluc cells, CellTiter-Fluor viability, 18-24 h; activity change, negative = cytotoxicity: at 46 µM (top of the series)
Outline: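 A549 ARE_Fluc cells in 5% FBS OPTI-MEM were exposed to compounds in concentration-response for 18-24 h at 37 deg C. Viability was read by CellTiter-Fluor fluorescence (Ex 405/Em 525) after 30 min, before the luciferase read.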
% is scaled to controls: 0 for no effect and ±100 for the full control effect; potency is read from the fitted curve at half-maximal effect.

SMILES	Potency	activity change, negative = cytotoxicity
O=C(NC1CCCCC1)C(c1ccc(F)cc1)N(C(=O)c1csnn1)C1CC1 (stereo not drawn)	inconclusive: 6.51 µM [activator, partial curve, poor fit]	
C=CC(=O)N1c2ccccc2Sc2ccc(NC(=O)OCC)cc21	inconclusive: 29.1 µM [falling, partial curve, poor fit]	
COc1ccc(CNC(=O)c2ccc3nc(C(C)C)oc3c2)cc1OC		inactive: 0.644%
COC(=O)c1c(NC(=S)NN2CCN(C)CC2)sc2c1CCC(C)C2 (stereo not drawn)	inconclusive: 29.1 µM [falling, single point]	
CN(C)c1nc(N)c(C#N)c(C#N)c1C#N	inconclusive: 14.6 µM [falling, partial curve]	
Cc1ccc(NS(=O)(=O)c2cccc(Cl)c2)cc1C		inactive: 11.2%
Cc1ccc(NC(=O)CSc2nc(NS(=O)(=O)c3ccc(C)cc3)cc(=O)[nH]2)cc1	inconclusive: 4.11 µM [falling, partial curve, poor fit]	
Cc1cccc(NC(=O)C2CCCN(S(=O)(=O)c3ccc(Br)s3)C2)c1 (stereo not drawn)		inactive: 1.65%
COc1ccc(CCNC(=O)c2nn(C)c3c2CS(=O)(=O)c2ccccc2-3)c(OC)c1		inactive: -13.2%
Cc1nc(SCc2nc3ccc(C(F)(F)F)cc3[nH]2)c2oc3ccccc3c2n1	inconclusive: 16.4 µM [falling, single point]	
OCCC1CN(Cc2ccccc2O)CCN1CCCc1ccccc1 (stereo not drawn)	inconclusive: 9.2 µM [activator, partial curve, poor fit]	
Cc1ccc(N(C)C(=O)CCS(=O)(=O)c2cc3c(cc2Cl)NC(=O)CO3)cc1	inconclusive: 25.9 µM [falling, partial curve, poor fit]	
COC(=O)c1n[nH]nc1-c1ccccc1		inactive: 0.739%
COc1cccc(NC(=O)c2oc3ccccc3c2NC(=O)c2cc3ccccc3o2)c1		inactive: 2.89%
Cc1cccc(N2CCN(C(=O)C3CCN(c4ncnc5c4nc4n5CCCCC4)CC3)CC2)c1C	inconclusive: 29.1 µM [falling, single point]	
COc1cc(/C=N/NC(=O)CCn2cnc(-c3ccccc3)c2-c2ccccc2)ccc1O	inconclusive: 29.1 µM [falling, single point]	
Cc1ccc(OC(C)C(=O)N/N=C/c2ccccn2)cc1 (stereo not drawn)		inactive: 0.301%
CCc1ccc(C(=O)Cc2cc3cccc(OC)c3oc2=O)cc1		inactive: 0%
CC(C)Cn1c(N)c(C(=O)COC(=O)/C=C/c2ccccc2)c(=O)n(C)c1=O	inconclusive: 13 µM [falling, partial curve]	
O=C(CSc1nnc(-c2ccco2)n1CC1CCCO1)c1ccc(F)cc1 (stereo not drawn)		inactive: 0.807%
CCc1ccc(NC(=O)N(CCCN2CCOCC2)C(C)c2cc3cccc(OC)c3o2)cc1 (stereo not drawn)	inconclusive: 32.6 µM [falling, partial curve, poor fit]	

SMILES	Potency	activity change, negative = cytotoxicity
CC(C)Oc1c(Cl)cc(CNC(C)(C)CO)cc1Cl	inconclusive: 29.1 µM [activator, single point]	
Cc1cccc(CSCc2ccc(C(=O)NCCc3ccccc3)o2)c1		inactive: 4.64%
CCCN(CCC)C(=O)CSc1nc2n[nH]c(C)c2c(=N)n1-c1ccc(OC)cc1	inconclusive: 18.4 µM [falling, partial curve, poor fit]	
Fc1ccc(CSc2nc(NCc3ccccc3)c3ccccc3n2)cc1	inconclusive: 20.6 µM [falling, partial curve, poor fit]	
Cc1[nH]c2ccccc2c1SCCNC(=O)c1ccc(Br)o1	inconclusive: 29.1 µM [falling, single point]	
Brc1ccc(-c2nc3ccccc3s2)s1		inactive: 4.57%
Cc1[nH]c2ccccc2c1/C=N/Nc1nc2ccccc2[nH]1	inconclusive: 20.6 µM [falling, single point]	
COc1cc(/C=C/C(=O)O)ccc1OCc1ccccc1C#N	inconclusive: 0.146 µM [activator, full curve, poor fit]	
CCc1ccc(C2CC(c3ccc(F)cc3)Nc3nc(N)nn32)cc1 (stereo not drawn)	inconclusive: 29.1 µM [activator, partial curve, poor fit]	
Cc1c(Br)c(C(F)(F)F)nn1CC(=O)NCc1ccccc1	inconclusive: 5.17 µM [activator, partial curve, poor fit]	
CCN1C(=O)C(CC(=O)Nc2ccc(OC)cc2)N(CCc2ccc(OC)cc2)C1=S (stereo not drawn)	inconclusive: 20.6 µM [falling, partial curve, poor fit]	
CC(=O)c1cc(-c2ccccc2)n(CCC(=O)NC(C)c2ccccc2)c1C (stereo not drawn)		inactive: -2.12%
O=C(Cc1ccc(F)cc1)NCCS(=O)(=O)N1CCN(c2ccccc2)CC1	inconclusive: 0.0651 µM [activator, full curve, poor fit]	
C#CCOCCOCCOCCNc1nc(N2CCN(C(=O)CCCCCCCCCCNC(=O)Cn3cc(C[C@@H](C)O)nn3)CC2)nc(N2CCN(C(=O)CCCCCCCCCCNC(=O)[C@H](CCCCN)n3cc(C[C@@H](C)CC)nn3)CC2)n1	inconclusive: 29.1 µM [falling, single point]	
Cc1ccccc1N=Cc1c(O)n(-c2nccs2)c(=O)c2ccccc12	inconclusive: 29.1 µM [falling, partial curve, poor fit]	
Cc1ccc(NC(=O)Nc2c(C)[nH]c(=O)[nH]c2=O)cc1Cl		inactive: 2.43%
CC(C)(C)c1ccc(C(=O)NCC(c2cccs2)S(=O)(=O)c2cccs2)cc1 (stereo not drawn)	inconclusive: 23.1 µM [falling, partial curve, poor fit]	
O=[N+]([O-])c1cccc2c(N3CCCC3)ccnc12	inconclusive: 18.4 µM [falling, single point]	
Cc1sc2nc(SCc3nc4ccccc4[nH]3)n(Cc3ccco3)c(=O)c2c1C	inconclusive: 18.4 µM [falling, partial curve, poor fit]	
c1ccc(OCCOCCN2CCN(C(c3ccccc3)c3ccccc3)CC2)cc1	inconclusive: 18.4 µM [falling, single point]	
Cc1c([N+](=O)[O-])cc(C(=O)Nc2ccc(NC(=O)c3ccco3)cc2)cc1[N+](=O)[O-]	inconclusive: 5.8 µM [falling, partial curve, poor fit]	

SMILES	Potency	activity change, negative = cytotoxicity
Cn1nc(C(=O)Nc2cccc(Cl)c2)cc1C(=O)Nc1cccc(Cl)c1	inconclusive: 23.1 µM [falling, partial curve, poor fit]	
CC(=O)N(C1=C(N2CCOCC2)C(=O)c2ccccc2C1=O)c1ccc(C(=O)O)cc1	inconclusive: 18.4 µM [falling, single point]	
O=[N+]([O-])c1ccc(N=NN(CCO)CCO)cc1	inconclusive: 11.6 µM [falling, partial curve]	
COc1cccc(NC(=S)NC(=O)Cc2ccccc2)c1	inconclusive: 16.4 µM [activator, partial curve, poor fit]	
O=C(c1cccc(S(=O)(=O)NCc2ccccc2)c1)N1CCN(c2cccc(C(F)(F)F)c2)CC1	inconclusive: 18.4 µM [falling, partial curve, poor fit]	
C=Cc1ccc(Cn2c(C(=O)O)c(CNCc3ccc(F)cc3)c3ccc(C)cc32)cc1	inconclusive: 13 µM [falling, partial curve]	
COc1ccc2cc(CN(CCCN3CCOCC3)Cc3nnnn3C3CCCCC3)c(=O)[nH]c2c1	inconclusive: 6.51 µM [falling, single point]	
O=C(CN1CCNCC1)Nc1ccc(Oc2ccccc2)cc1	inconclusive: 23.1 µM [activator, partial curve, poor fit]	
COC(=O)c1cn(CC(=O)NCc2cccs2)c2ccccc12	inconclusive: 6.51 µM [activator, full curve, poor fit]	
CCN1C(=O)C(CC(=O)Nc2ccc(OC)cc2)N(CCc2ccc(F)cc2)C1=S (stereo not drawn)	inconclusive: 14.6 µM [falling, partial curve, poor fit]	
C=CCOc1c(CNc2ccc(C(=O)O)cc2)cccc1OC		inactive: 2.44%
O=C(O)c1cc(O)c2c(c1)[C@H]([C@H]1c3cc(C(=O)O)cc(O)c3C(=O)c3c(O[C@@H]4O[C@H](CO)[C@@H](O)[C@H](O)[C@H]4O)cccc31)c1cccc(OC3O[C@H](CO)[C@@H](O)[C@H](O)[C@H]3O)c1C2=O (stereo partly drawn)	active: 16.4 µM	
Cc1ccc(C(=O)C2=C(O)C(=O)N(Cc3ccco3)C2c2cccc(Cl)c2)o1 (stereo not drawn)		inactive: -13.3%
COc1ccc(C2NN=C(c3c[nH]c4ccccc34)C2O)cc1 (stereo not drawn)		inactive: -2.25%
CC[C@]12c3[nH]c4ccc(OC)cc4c3CCN1C(=O)C(CC(=O)NC/C=C(\C)CCC=C(C)C)C[C@@H]2C(=O)N1CCN(C(=O)C2CC2)CC1 (stereo partly drawn)	inconclusive: 18.4 µM [falling, single point]	
CC(C)COc1cccc(C(=O)N2CCN(C(=O)c3ccco3)CC2)c1		inactive: 3.82%
CC(C)(C)c1ccc(C(=O)N/N=C/c2cccc(Cl)c2)cc1	inconclusive: 18.4 µM [falling, partial curve, poor fit]	
CN(C)c1ccc(C2CC(c3cccc(NS(C)(=O)=O)c3)=NN2C(=O)c2ccccc2)cc1 (stereo not drawn)	inconclusive: 14.6 µM [falling, partial curve, poor fit]	
Cc1cccc(C(=O)NCC(c2ccco2)S(=O)(=O)c2cccs2)c1 (stereo not drawn)		inactive: -2.28%
CCOC(=O)COc1ccc(C2C(C(=O)OC)=C(C)NC3=C2C(=O)c2ccccc23)cc1Cl (stereo not drawn)	inconclusive: 14.6 µM [falling, partial curve, poor fit]	
CC(C)NC(=S)N/N=C1\CCCCc2ccccc21	inconclusive: 29.1 µM [activator, single point]	

Some of the entries above, reformatted:
SMILES,Potency,"activity change, negative = cytotoxicity"
CCc1ccc(NC(=O)N(CCCN2CCOCC2)C(C)c2cc3cccc(OC)c3o2)cc1 (stereo not drawn),"inconclusive: 32.6 µM [falling, partial curve, poor fit]",
CC(C)Oc1c(Cl)cc(CNC(C)(C)CO)cc1Cl,"inconclusive: 29.1 µM [activator, single point]",
Cc1cccc(CSCc2ccc(C(=O)NCCc3ccccc3)o2)c1,,inactive: 4.64%
CCCN(CCC)C(=O)CSc1nc2n[nH]c(C)c2c(=N)n1-c1ccc(OC)cc1,"inconclusive: 18.4 µM [falling, partial curve, poor fit]",
Fc1ccc(CSc2nc(NCc3ccccc3)c3ccccc3n2)cc1,"inconclusive: 20.6 µM [falling, partial curve, poor fit]",
Cc1[nH]c2ccccc2c1SCCNC(=O)c1ccc(Br)o1,"inconclusive: 29.1 µM [falling, single point]",
Brc1ccc(-c2nc3ccccc3s2)s1,,inactive: 4.57%
Cc1[nH]c2ccccc2c1/C=N/Nc1nc2ccccc2[nH]1,"inconclusive: 20.6 µM [falling, single point]",
COc1cc(/C=C/C(=O)O)ccc1OCc1ccccc1C#N,"inconclusive: 0.146 µM [activator, full curve, poor fit]",
CCc1ccc(C2CC(c3ccc(F)cc3)Nc3nc(N)nn32)cc1 (stereo not drawn),"inconclusive: 29.1 µM [activator, partial curve, poor fit]",
Cc1c(Br)c(C(F)(F)F)nn1CC(=O)NCc1ccccc1,"inconclusive: 5.17 µM [activator, partial curve, poor fit]",
CCN1C(=O)C(CC(=O)Nc2ccc(OC)cc2)N(CCc2ccc(OC)cc2)C1=S (stereo not drawn),"inconclusive: 20.6 µM [falling, partial curve, poor fit]",
CC(=O)c1cc(-c2ccccc2)n(CCC(=O)NC(C)c2ccccc2)c1C (stereo not drawn),,inactive: -2.12%
O=C(Cc1ccc(F)cc1)NCCS(=O)(=O)N1CCN(c2ccccc2)CC1,"inconclusive: 0.0651 µM [activator, full curve, poor fit]",
